Experimental data reported in patent US20220275038A1 (TOKYO MEDICAL UNIVERSITY, published 2022).
Results are given in words; binding and its absence hold for the method and conditions named. In cells and extracts the contact can be indirect. Some results given as binding are weak or reduced against the parent protein; the word gives no strength. Where a sequence is shown, tags or fusion partners need not be part of it.

Chains of the proteins cited; added tags and fusions are not shown. Lines headed by an entry give the natural chain unless they say otherwise; changes in a name come on top.
UniProt Q15848: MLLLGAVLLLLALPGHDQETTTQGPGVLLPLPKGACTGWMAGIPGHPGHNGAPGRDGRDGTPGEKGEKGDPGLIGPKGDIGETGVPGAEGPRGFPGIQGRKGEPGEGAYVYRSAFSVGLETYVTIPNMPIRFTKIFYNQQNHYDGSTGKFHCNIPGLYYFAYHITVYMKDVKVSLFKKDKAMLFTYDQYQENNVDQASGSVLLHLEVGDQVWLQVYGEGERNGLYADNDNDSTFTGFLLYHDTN

Key:
[1] = biological target: adiponectin C-terminally tagged with FLAG (overexpressed in F11 cells, immunoprecipitated with FLAG antibody) (human) (UniProt Q15848); assay: pull-down with immunoprecipitated adiponectin, myc immunoblot (FIG. 9)
[2] = biological target: adiponectin C-terminally tagged with FLAG (overexpressed in F11 cells, immunoprecipitated with FLAG antibody) (human) (UniProt Q15848); assay: pull-down of purified MycHis-tagged CLSP proteins with ADN-FLAG immunoprecipitated on M2 agarose beads, WB anti-myc [ADN beads]

binding [1]: binds
binding [2]: binds
B1: CLSP deletion mutant EHR, C-terminally tagged with MycHis (consists of only the endogenous humanin-homogenous region) (peptide)
chain: TGKNLSEAQLRKLISEVDSDGD
notes: also called mutants consisting of only EHR; not shown: C-terminal MycHis tag
